The other results are listed elsewhere or left out.

The target of this experiment is T1, OsSMF1 (Oryza sativa, UniProt Q6ZLB0 1-436).
T1 sequence: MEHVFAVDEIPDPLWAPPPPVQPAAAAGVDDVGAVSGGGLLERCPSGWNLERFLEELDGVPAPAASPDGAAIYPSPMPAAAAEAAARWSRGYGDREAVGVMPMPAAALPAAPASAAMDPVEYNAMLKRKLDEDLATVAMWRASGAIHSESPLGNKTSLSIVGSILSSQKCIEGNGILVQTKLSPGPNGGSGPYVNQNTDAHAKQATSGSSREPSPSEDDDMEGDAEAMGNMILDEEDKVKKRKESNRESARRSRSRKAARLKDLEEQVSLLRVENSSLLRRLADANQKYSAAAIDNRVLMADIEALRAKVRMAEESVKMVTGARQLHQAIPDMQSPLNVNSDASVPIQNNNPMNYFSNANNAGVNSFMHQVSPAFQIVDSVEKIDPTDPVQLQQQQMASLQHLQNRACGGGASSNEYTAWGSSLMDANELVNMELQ
Description: protein-binding microarray (RPBM); PBS, 2% BSA, 51.3 ng/ul salmon testes DNA, 50 uM zinc acetate, 200 nM TF, 25 C, 1 h; high values mean tight binding. Particulars: protein: recombinant; tags: N-terminal polyhistidine and DsRed monomer fusion (pET32a); chain copies: 2; label: CyDye5-dUTP incorporated in the synthesized complementary strand; 3' TTTTT single-stranded linker to array surface; dsDNA, one strand shown. The essentials: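 The binding signal for each feature is its fluorescence intensity in arbitrary units. An Axon 4000B scanner was used to read a custom Agilent array that had been made double-stranded with Cy5-dUTP primer extension, blocked with 2% BSA, incubated at 25 °C for 1 h with 200 nM protein in PBS, 2% BSA, salmon testes DNA and 50 µM zinc acetate, and washed. The protein was an N-terminal polyhistidine–DsRed transcription factor fusion from E. coli BL21-CodonPlus, purified on Ni–NTA.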
As for “GTCCCCGTCCGGCCCACGCTACATATGGTACAAACTGAGGCGGAGTCACCTAGTGCAG”, the binding signal is 3780 fluorescence intensity (a.u.).

On to “ATTGTGTAGTTCATCTTGCGGAAACAACACAGTACGTGGTCGGAGTCACCTAGTGCAG”, for which the binding signal was 3830 fluorescence intensity (a.u.).

Turning to “TCGTGCATACACGTCAGGACTCCGGACATGAACCCACCACCGGAGTCACCTAGTGCAG”, the binding signal was 9750 fluorescence intensity (a.u.). The same measure for “CTGGGCACTGGACCCCACCTGTCAATGGCACTGCCCTTCACGGAGTCACCTAGTGCAG”: 34000 fluorescence intensity (a.u.). For the sequence “CTTTTAGATGTGGCAATTAACTATTTGCCACTGGACCACCCGGAGTCACCTAGTGCAG”, the binding signal is 3740 fluorescence intensity (a.u.). In the case of “TTTCGCGGGCGTGACAGCACGGCTCGAAGTCACTTTCCCCCGGAGTCACCTAGTGCAG” it was 3980 fluorescence intensity (a.u.); in that of “TGCCTCTCGCATGCGAAGCGAGCGCTCTACCATATGAGCTCGGAGTCACCTAGTGCAG”, 21000 fluorescence intensity (a.u.). The same measure for “CCTATGCACTGATACGTGACAGCGGTGCACGTCGGCACAGCGGAGTCACCTAGTGCAG”: 5120 fluorescence intensity (a.u.). The same measure for “TGATATCTGGATGCCCGTCATCACCGCCTCTGCCGATGAACGGAGTCACCTAGTGCAG”: 3190 fluorescence intensity (a.u.); for “GTAGGTTCAGTACACGTCCCCTTACCGTGATGAGGCGCCTCGGAGTCACCTAGTGCAG”: 5160 fluorescence intensity (a.u.). For “AATTAATATGAACTGCACATACATCACTGTGCTCATATTTCGGAGTCACCTAGTGCAG”, the binding signal was 34600 fluorescence intensity (a.u.). With “GTCAAGAAACCATTTCGGTTACATCACACAACACAGCCTCCGGAGTCACCTAGTGCAG”, the binding signal was 3160 fluorescence intensity (a.u.). The same measure for “GCGCCGCCACCCTCCACTACTACGAATCGCCAGCCGCCACCGGAGTCACCTAGTGCAG”: 3210 fluorescence intensity (a.u.). Consider “GCCAGTGTGCCGCTCTACGAGGGAATCCCCGAGCTGAGCACGGAGTCACCTAGTGCAG”, for which the binding signal is 3650 fluorescence intensity (a.u.). In the case of “TTCTTGCTCCATTTACTTTAACAAGTTTTGGTGAACTTAACGGAGTCACCTAGTGCAG” it was 34200 fluorescence intensity (a.u.). In the case of “TTAGCTTAGTTTCCAGTGGTTGGTGACTGTAACAAAATGTCGGAGTCACCTAGTGCAG” it was 5180 fluorescence intensity (a.u.). The same measure for “TCGCCAACTCGCGCCCAATCCCGGCTTGACACGTCACCCCCGGAGTCACCTAGTGCAG”: 42000 fluorescence intensity (a.u.); for “ATTCAATTTCAAGCTGTGCACTAATGCATCTATCTTAAGCCGGAGTCACCTAGTGCAG”: 17000 fluorescence intensity (a.u.); for “GTGTCGAGCCCAACACCGAGTGACGCACGCTCATCGCGGTCGGAGTCACCTAGTGCAG”: 5480 fluorescence intensity (a.u.). For “AACCCGGCCACGTCTAATTTATTTGTAAGCCGCCACCCTCCGGAGTCACCTAGTGCAG”, the binding signal was 3500 fluorescence intensity (a.u.). The same measure for “GTTGGTACGTGTGCTTGCGTTTGCGTTGCGGTGCAGCGCACGGAGTCACCTAGTGCAG”: 3440 fluorescence intensity (a.u.).

On to “GTCTAGCTAGTGCAATTAGAGTAACCTATATATCACACAACGGAGTCACCTAGTGCAG”, for which the binding signal is 52200 fluorescence intensity (a.u.).

Take “ACTTACACGTGGCCCCGAGATGACTTCCGGACCCACCTGTCGGAGTCACCTAGTGCAG”: the binding signal was 7910 fluorescence intensity (a.u.). In the case of “GTTGAGGGTGCAAAACAAAAGGCACTGATATTATAATGTACGGAGTCACCTAGTGCAG” it was 38500 fluorescence intensity (a.u.); in that of “GTCACCGCTACGAAGTGGCGCCCCGTGCGTCAGTTCCCCACGGAGTCACCTAGTGCAG”, 3810 fluorescence intensity (a.u.).

Turning to “AGTCTCCCAATCCCAACTGATTGTTCAGATAGGTCAGTTACGGAGTCACCTAGTGCAG”, the binding signal was 3220 fluorescence intensity (a.u.).

“TGCATGATACGCCATCATACACTTGTAAAGTAGTGTACACCGGAGTCACCTAGTGCAG”: the binding signal was 3280 fluorescence intensity (a.u.). The same measure for “CTGCGGCAGCCAACGCAGCATCCACCGTGTCCCCATCGCACGGAGTCACCTAGTGCAG”: 6380 fluorescence intensity (a.u.); for “CATGCCATTTTCAGAGATTGATTAATCTGTTGTTTATGTCCGGAGTCACCTAGTGCAG”: 3440 fluorescence intensity (a.u.); for “TGTGCTAACTGTTAGTGGTGACTGGTGACAAGTACATCACCGGAGTCACCTAGTGCAG”: 3360 fluorescence intensity (a.u.). The same measure for “TTGTCGTCTTGCGATTACGGCTCCACGTGAGCGCGTGTGCCGGAGTCACCTAGTGCAG”: 6900 fluorescence intensity (a.u.).

For the sequence “AATTTGCACGTAGTGACTACGTTGATTCGTGGCCGTAGATCGGAGTCACCTAGTGCAG”, the binding signal was 4650 fluorescence intensity (a.u.). In the case of “CTCGCTGCCGCCGCCGTCGCTCGCCGTCACGTCGCCGTACCGGAGTCACCTAGTGCAG” it was 3480 fluorescence intensity (a.u.). The same measure for “GGCATCGACAATGACGGCGATGCGGTGCATATAGTGTTGTCGGAGTCACCTAGTGCAG”: 3630 fluorescence intensity (a.u.). As to “GGAGTATCCATGCCAGCTAAGCGAGTTGTACAAGGCAAGCCGGAGTCACCTAGTGCAG”, the binding signal is 5690 fluorescence intensity (a.u.).

For the sequence “AAGACCAGTCTTGCTCAAAATTGACAACTCATGGAAATGGCGGAGTCACCTAGTGCAG”, the binding signal was 3150 fluorescence intensity (a.u.). For “ACATAATCCAACCTTACCTACGTGTTCATGACTCCAACACCGGAGTCACCTAGTGCAG”, the binding signal is 9480 fluorescence intensity (a.u.). In the case of “TCAAAATGATCTCTACACATCATATTCTGCTTGGTATTAGCGGAGTCACCTAGTGCAG” it was 3320 fluorescence intensity (a.u.); in that of “CAGCCTACATACGGGGTCCACGTGGGCCCCACCATATTTACGGAGTCACCTAGTGCAG”, 8140 fluorescence intensity (a.u.); in that of “CCGCCGCAACGCCAAGAGCCAAACCGCCTCCTCCTTCCCACGGAGTCACCTAGTGCAG”, 7590 fluorescence intensity (a.u.). In the case of “AAGCCATTGTGGTCATATTAGGCTATTCGTGCTTCTGATGCGGAGTCACCTAGTGCAG” it was 3240 fluorescence intensity (a.u.); in that of “AACTGGAGTTGGCACAGGATGTGGCTCAACTAGTGGTGGCCGGAGTCACCTAGTGCAG”, 3580 fluorescence intensity (a.u.).

Source of the values: paper PMC7819943, “Rice protein-binding microarrays: a tool to detect cis-acting elements near promoter regions in rice”.
